In the supplement of paper PMC10849652:
The other results are listed elsewhere or left out.

Amino acid sequences for entries named in this document (tags omitted). A change or cut given only in a name is not applied to a line headed by its entry.
UniProt P56270: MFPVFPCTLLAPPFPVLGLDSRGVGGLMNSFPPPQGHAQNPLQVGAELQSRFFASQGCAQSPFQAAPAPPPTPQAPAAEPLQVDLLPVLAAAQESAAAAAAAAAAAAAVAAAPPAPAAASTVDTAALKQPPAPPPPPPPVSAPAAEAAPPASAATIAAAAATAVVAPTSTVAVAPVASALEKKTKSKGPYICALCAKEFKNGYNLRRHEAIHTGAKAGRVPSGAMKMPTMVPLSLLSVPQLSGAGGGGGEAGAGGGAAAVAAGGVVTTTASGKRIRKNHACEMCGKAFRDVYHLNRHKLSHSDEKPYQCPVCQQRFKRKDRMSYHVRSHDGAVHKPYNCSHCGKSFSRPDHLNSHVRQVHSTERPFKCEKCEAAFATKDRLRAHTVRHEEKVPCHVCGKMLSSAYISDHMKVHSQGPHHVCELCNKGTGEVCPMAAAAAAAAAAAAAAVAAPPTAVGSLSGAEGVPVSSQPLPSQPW
UniProt Q6N075: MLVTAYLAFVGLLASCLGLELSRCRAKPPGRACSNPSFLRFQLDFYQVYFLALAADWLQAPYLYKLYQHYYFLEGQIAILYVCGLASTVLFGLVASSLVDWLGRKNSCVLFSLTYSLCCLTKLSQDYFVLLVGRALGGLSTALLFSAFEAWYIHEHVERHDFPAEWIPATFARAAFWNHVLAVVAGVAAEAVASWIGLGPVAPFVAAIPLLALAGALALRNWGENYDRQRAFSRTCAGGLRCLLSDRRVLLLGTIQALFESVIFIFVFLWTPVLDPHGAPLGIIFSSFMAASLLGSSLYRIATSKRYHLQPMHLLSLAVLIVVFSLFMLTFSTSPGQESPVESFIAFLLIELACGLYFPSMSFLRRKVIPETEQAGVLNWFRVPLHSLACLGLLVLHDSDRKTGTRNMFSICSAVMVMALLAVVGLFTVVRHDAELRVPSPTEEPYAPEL
UniProt Q86V88: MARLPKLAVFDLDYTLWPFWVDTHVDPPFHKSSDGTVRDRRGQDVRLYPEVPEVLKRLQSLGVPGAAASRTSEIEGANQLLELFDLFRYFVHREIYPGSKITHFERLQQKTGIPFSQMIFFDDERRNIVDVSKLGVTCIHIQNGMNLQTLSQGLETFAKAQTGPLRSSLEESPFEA
UniProt Q9NWR8: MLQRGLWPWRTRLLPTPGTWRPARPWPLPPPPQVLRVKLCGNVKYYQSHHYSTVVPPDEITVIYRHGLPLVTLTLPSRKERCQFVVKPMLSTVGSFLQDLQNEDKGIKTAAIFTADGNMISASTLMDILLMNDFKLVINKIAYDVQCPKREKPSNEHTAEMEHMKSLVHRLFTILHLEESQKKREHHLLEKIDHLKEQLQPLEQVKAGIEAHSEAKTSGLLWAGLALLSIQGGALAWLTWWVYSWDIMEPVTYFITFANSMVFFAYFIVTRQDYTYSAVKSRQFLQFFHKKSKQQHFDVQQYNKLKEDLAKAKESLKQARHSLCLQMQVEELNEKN
UniProt P31153, whole entry, looked up: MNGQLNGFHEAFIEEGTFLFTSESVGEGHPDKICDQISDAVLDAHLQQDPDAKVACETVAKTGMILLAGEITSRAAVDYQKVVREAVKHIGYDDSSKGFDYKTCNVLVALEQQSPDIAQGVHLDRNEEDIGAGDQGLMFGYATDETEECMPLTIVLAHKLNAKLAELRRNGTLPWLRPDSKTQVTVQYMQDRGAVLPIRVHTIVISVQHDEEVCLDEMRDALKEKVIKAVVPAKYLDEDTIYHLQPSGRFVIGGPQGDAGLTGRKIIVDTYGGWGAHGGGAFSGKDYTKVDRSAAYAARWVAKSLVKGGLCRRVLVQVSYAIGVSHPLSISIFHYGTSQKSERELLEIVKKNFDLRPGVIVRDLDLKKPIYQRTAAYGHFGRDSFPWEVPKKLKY
UniProt Q8WXB1: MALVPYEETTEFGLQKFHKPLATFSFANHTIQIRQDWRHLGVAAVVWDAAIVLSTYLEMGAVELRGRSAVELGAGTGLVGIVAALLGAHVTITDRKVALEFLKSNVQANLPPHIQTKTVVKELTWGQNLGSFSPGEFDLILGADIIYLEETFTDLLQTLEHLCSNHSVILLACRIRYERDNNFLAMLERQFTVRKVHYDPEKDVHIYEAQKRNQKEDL
UniProt Q9GZU1, whole entry, looked up: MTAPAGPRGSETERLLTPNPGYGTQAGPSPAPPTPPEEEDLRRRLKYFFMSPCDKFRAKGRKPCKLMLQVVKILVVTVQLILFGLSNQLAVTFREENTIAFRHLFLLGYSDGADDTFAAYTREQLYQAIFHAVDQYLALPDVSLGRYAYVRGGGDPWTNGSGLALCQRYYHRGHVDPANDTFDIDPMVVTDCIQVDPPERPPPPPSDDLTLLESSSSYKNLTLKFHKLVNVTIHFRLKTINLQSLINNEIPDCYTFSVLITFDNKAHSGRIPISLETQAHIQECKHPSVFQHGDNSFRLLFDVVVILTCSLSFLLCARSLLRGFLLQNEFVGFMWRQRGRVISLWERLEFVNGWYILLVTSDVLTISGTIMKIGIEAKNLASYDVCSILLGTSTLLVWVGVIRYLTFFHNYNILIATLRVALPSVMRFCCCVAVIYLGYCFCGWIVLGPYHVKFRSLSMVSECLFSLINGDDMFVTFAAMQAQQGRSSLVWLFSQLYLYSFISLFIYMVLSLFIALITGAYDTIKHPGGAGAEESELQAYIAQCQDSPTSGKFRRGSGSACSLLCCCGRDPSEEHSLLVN
UniProt P26572: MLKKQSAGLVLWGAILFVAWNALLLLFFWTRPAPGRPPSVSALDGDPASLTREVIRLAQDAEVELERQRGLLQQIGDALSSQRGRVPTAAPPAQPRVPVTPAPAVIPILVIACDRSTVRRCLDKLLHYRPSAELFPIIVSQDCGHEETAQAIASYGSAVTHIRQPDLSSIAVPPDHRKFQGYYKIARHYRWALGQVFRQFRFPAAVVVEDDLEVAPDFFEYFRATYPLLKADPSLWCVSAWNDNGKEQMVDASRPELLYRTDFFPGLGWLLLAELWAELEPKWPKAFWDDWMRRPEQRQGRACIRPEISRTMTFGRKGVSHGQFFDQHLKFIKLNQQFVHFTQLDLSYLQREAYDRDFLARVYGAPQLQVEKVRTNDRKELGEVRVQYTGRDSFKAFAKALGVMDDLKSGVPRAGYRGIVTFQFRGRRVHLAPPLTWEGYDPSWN
UniProt Q9GZY8: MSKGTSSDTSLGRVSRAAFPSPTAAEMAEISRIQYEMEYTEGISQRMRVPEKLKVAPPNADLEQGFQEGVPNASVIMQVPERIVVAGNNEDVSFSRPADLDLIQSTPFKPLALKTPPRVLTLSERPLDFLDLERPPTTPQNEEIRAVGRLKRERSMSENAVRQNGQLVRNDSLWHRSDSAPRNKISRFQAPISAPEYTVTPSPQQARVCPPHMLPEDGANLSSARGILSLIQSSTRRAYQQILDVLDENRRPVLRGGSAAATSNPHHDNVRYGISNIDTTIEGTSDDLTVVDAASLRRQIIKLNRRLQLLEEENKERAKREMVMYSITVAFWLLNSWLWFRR
UniProt Q99735: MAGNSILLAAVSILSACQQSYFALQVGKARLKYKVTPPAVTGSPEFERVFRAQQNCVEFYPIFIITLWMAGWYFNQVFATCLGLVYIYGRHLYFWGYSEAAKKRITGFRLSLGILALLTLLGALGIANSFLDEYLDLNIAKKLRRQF
UniProt P51608, whole entry, looked up: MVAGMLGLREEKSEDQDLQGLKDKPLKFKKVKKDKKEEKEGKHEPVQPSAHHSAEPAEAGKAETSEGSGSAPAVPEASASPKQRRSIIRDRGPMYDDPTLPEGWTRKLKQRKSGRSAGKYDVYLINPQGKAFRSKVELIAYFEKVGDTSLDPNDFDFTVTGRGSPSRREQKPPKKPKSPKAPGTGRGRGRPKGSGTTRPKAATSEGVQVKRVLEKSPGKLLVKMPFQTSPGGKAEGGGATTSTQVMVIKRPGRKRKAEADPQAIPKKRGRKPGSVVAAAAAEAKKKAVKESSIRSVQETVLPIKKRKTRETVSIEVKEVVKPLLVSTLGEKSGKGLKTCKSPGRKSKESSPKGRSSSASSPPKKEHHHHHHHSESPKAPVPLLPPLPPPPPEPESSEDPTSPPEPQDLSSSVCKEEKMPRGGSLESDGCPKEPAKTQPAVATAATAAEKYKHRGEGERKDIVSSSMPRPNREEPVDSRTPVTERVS
UniProt Q9UHV7: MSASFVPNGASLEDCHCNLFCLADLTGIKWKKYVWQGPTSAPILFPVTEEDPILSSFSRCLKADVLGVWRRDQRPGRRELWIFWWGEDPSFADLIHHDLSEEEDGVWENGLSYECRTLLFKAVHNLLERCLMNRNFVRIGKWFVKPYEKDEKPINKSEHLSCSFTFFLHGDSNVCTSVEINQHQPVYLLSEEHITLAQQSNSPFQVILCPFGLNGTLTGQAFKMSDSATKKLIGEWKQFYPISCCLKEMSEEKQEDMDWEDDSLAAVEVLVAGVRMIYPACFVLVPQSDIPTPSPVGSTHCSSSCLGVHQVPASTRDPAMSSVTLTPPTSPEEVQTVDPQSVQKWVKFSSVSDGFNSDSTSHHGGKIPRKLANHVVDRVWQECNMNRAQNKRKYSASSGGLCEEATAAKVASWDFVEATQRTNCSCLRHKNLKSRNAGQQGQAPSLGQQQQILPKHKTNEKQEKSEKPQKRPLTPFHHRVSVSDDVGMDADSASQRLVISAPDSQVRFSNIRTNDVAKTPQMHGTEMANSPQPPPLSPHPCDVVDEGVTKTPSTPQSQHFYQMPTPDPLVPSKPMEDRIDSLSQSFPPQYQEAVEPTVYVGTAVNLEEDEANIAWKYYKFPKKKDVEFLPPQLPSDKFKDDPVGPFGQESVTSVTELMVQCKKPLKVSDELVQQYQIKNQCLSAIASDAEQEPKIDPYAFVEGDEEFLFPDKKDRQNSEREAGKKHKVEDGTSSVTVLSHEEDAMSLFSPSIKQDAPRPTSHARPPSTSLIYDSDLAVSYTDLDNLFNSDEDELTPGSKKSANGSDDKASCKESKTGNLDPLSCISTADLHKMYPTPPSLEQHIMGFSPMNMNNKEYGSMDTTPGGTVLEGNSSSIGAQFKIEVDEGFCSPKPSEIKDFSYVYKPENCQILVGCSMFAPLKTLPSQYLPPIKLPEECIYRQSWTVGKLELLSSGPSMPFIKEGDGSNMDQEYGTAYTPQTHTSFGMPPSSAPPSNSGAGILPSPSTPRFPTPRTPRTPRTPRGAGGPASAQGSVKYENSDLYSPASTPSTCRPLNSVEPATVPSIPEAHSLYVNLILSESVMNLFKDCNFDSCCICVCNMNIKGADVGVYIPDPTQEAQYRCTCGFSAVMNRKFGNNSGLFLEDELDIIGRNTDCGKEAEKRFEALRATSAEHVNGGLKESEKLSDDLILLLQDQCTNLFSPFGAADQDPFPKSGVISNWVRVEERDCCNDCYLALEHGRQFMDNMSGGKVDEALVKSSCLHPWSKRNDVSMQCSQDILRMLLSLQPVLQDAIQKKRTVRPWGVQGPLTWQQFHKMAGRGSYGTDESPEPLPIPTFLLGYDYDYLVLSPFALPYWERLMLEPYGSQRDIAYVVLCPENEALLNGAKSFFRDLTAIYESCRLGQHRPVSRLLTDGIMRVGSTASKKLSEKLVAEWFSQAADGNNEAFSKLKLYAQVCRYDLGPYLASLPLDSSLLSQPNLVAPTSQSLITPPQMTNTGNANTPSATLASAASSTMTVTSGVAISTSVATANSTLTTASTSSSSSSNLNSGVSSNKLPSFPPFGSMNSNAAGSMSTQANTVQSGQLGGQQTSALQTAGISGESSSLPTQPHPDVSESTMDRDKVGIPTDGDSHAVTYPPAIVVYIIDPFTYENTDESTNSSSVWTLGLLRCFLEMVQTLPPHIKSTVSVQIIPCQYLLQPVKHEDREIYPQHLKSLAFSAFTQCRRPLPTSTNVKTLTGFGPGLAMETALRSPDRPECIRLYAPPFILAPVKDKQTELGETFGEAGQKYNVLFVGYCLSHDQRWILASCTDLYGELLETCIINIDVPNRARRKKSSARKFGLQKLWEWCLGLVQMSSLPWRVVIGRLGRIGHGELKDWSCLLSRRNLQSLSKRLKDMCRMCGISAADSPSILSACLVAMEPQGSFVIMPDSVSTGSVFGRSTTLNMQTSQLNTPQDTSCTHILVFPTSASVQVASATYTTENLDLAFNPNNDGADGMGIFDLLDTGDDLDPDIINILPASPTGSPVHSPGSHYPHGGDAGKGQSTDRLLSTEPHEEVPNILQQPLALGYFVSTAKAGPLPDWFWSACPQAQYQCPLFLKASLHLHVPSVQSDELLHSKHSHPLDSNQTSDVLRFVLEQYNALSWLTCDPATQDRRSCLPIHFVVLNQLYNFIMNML

Assays:
Assay in all cases: log2 fold change, soluble protein after heating vs DMSO (PISA); higher = thermal stabilisation; K562 cells, 10 uM, 30 min; active = over 0.2 and 3.5 SD of the protein, either way, in both replicates (recomputed)
[1] = compound: CC[C@@H]1C(=O)N(C)c2cnc(Nc3ccc(C(=O)NC4CCN(C)CC4)cc3OC)nc2N1C1CCCC1
Method in brief: (§1)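 K562 cells at 2×10^6 cells/mL were given 10 μM compound for 30 min. Aliquots then went through 3 min of heating across 48°C-58°C, were pooled, and were extracted in PBS with 0.5% NP-40 at 4°C, and the supernatant after 21,000xg for 90 min was quantified by TMTpro 16plex LC-MS/MS with channel sums equalised. Thermal stability relative to control samples, from duplicates, is given as log2 fold change.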

volasertib = compound: CC[C@@H]1C(=O)N(C)c2cnc(Nc3ccc(C(=O)N[C@H]4CC[C@H](N5CCN(CC6CC6)CC5)CC4)cc3OC)nc2N1C(C)C [volasertib]
Method in brief: as §1

[2] = compound: CC[C@H](C)N1C=C(C2=C(C=C(C=C21)C3=CN=C(C=C3)N4CCNCC4)C(=O)NCC5=C(C=C(NC5=O)C)C)C
Method in brief: as §1

epoxomicin = compound: CC[C@H](C)[C@@H](C(=O)N[C@@H]([C@@H](C)O)C(=O)N[C@@H](CC(C)C)C(=O)[C@]1(CO1)C)NC(=O)[C@H]([C@@H](C)CC)N(C)C(=O)C [epoxomicin]
Method in brief: as §1

[3] = compound: CCn1c(C(=O)N(C2CC2)C2CC2)cc2c3c(ncn3C)c(Nc3cc(C)n(C)n3)nc21
Method in brief: as §1

[4] = compound: CCn1cc(-c2ccnc3[nH]c(-c4cccc(CN(C)C)c4)cc23)c(-c2ccc(NC(=O)N(C)C)cc2)n1
Method in brief: as §1

[5] = compound: CN(C)CC(=O)Nc1ccc2[nH]c(=O)c3ccccc3c2c1
Method in brief: as §1

rosiglitazone = compound: CN(CCOC1=CC=C(C=C1)C[C@H]2C(=O)NC(=O)S2)C3=CC=CC=N3 (racemic) [rosiglitazone]
Method in brief: as §1

[6] = compound: CN1C2=C(C3=C1C(=O)N(N=C3)CC4=CC(=CC=C4)N)SC(=C2)S(=O)C
Method in brief: as §1

[7] = compound: CN1CCC(CNc2ccc3ncc(-c4cccc(OC(F)(F)F)c4)n3n2)CC1
Method in brief: as §1

saracatinib = compound: CN1CCN(CCOc2cc(OC3CCOCC3)c3c(Nc4c(Cl)ccc5c4OCO5)ncnc3c2)CC1 [saracatinib]
Method in brief: as §1

sotrastaurin = compound: CN1CCN(c2nc(C3=C(c4c[nH]c5ccccc45)C(=O)NC3=O)c3ccccc3n2)CC1 [sotrastaurin]
Method in brief: as §1

alvocidib = compound: CN1CC[C@H](c2c(O)cc(O)c3c(=O)cc(-c4ccccc4Cl)oc23)[C@H](O)C1 [alvocidib]
Method in brief: as §1

Tubastatin A = compound: CN1CCc2c(c3ccccc3n2Cc2ccc(C(=O)NO)cc2)C1 [Tubastatin A]
Method in brief: as §1

[8] = compound: CNC(=O)C1=CC=CC=C1NC2=NC(=NC=C2Cl)NC3=C(C=C(C=C3)N4CCOCC4)OC
Method in brief: as §1

defactinib = compound: CNC(=O)c1ccc(Nc2ncc(C(F)(F)F)c(NCc3nccnc3N(C)S(C)(=O)=O)n2)cc1 [defactinib]
Method in brief: as §1

rucaparib = compound: CNCc1ccc(-c2[nH]c3cc(F)cc4c3c2CCNC4=O)cc1 [rucaparib]
Method in brief: as §1

[9] = compound: CNc1nc(-c2ccc3c(N)n[nH]c3c2)cc(N2C[C@@H](C(=O)NC3CCCCC3)CC[C@H]2C)n1
Method in brief: as §1

encorafenib = compound: COC(=O)N[C@@H](C)CNc1nccc(-c2cn(C(C)C)nc2-c2cc(Cl)cc(NS(C)(=O)=O)c2F)n1 [encorafenib]
Method in brief: as §1

[10] = compound: COC(=O)[C@H](CCSC)NC(=O)C1=C(C=C(C=C1)NC[C@H](CS)N)C2=CC=CC=C2
Method in brief: as §1

Measured: log2 fold change

MCM4 (UniProt P33991)
inactive: [1] -0.02 | volasertib -0.079 | [2] 0.034 | epoxomicin 0.025 | [3] 0.009 | [4] -0.062 | [5] 0.032 | rosiglitazone 0.046 | [6] -0.074 | [7] -0.128 | saracatinib 0.006 | sotrastaurin -0.039 | alvocidib -0.153 | Tubastatin A 0.006 | [8] 0 | defactinib -0.093 | rucaparib -0.038 | [9] -0.026 | encorafenib -0.001 | [10] -0.014

METAP2 (UniProt P50579)
inactive: [1] 0.016 | volasertib 0.071 | [2] 0.007 | epoxomicin 0.031 | [3] -0.079 | [4] -0.078 | [5] -0.031 | rosiglitazone -0.014 | [6] 0.006 | [7] 0.204 | saracatinib 0.05 | sotrastaurin 0.121 | alvocidib 0.023 | Tubastatin A -0.017 | [8] -0.018 | defactinib -0.047 | rucaparib 0.031 | [9] -0.064 | encorafenib -0.06 | [10] 0.026

MAZ isoform 2 (UniProt P56270)
inactive: [1] 0.135 | volasertib 0.159 | [2] 0.045 | epoxomicin -0.159 | [3] -0.032 | [4] 0.006 | [5] -0.101 | rosiglitazone -0.084 | [6] 0.118 | [7] 0.207 | saracatinib -0.118 | sotrastaurin -0.124 | alvocidib 0.28 | Tubastatin A -0.123 | [8] 0.017 | defactinib 0.192 | rucaparib 0.28 | [9] 0.086 | encorafenib 0.073 | [10] -0.006

Fetched one by one from the list above (2):
MCM4 (UniProt P33991)
inactive: [1] -0.02 | volasertib -0.079 | [2] 0.034 | epoxomicin 0.025 | [3] 0.009 | [4] -0.062 | [5] 0.032 | rosiglitazone 0.046 | [6] -0.074 | [7] -0.128 | saracatinib 0.006 | sotrastaurin -0.039 | alvocidib -0.153 | Tubastatin A 0.006 | [8] 0 | defactinib -0.093 | rucaparib -0.038 | [9] -0.026 | encorafenib -0.001 | [10] -0.014

MAZ isoform 2 (UniProt P56270)
inactive: [1] 0.135 | volasertib 0.159 | [2] 0.045 | epoxomicin -0.159 | [3] -0.032 | [4] 0.006 | [5] -0.101 | rosiglitazone -0.084 | [6] 0.118 | [7] 0.207 | saracatinib -0.118 | sotrastaurin -0.124 | alvocidib 0.28 | Tubastatin A -0.123 | [8] 0.017 | defactinib 0.192 | rucaparib 0.28 | [9] 0.086 | encorafenib 0.073 | [10] -0.006

Next records

MFSD5 isoform 2 (UniProt Q6N075)
active: epoxomicin 0.427
inactive: [1] 0.052 | volasertib 0.111 | [2] -0.124 | [4] 0.028 | [5] -0.092 | [6] -0.056 | [7] 0.14 | saracatinib 0.058 | sotrastaurin 0.122 | Tubastatin A -0.093 | [8] 0.069 | defactinib 0.039 | rucaparib 0.058 | [9] -0.065 | encorafenib -0.022 | [10] 0.012

MDP1 (UniProt Q86V88)
inactive: [1] 0.045 | volasertib 0.029 | [2] -0.065 | epoxomicin -0.03 | [3] 0.052 | [4] -0.034 | [5] -0.113 | rosiglitazone -0.061 | [6] 0.016 | [7] 0.127 | saracatinib -0.004 | sotrastaurin -0.022 | alvocidib 0.13 | Tubastatin A 0.062 | [8] -0.035 | defactinib 0.116 | rucaparib -0.015 | [9] -0.038 | encorafenib -0.019 | [10] -0.005

MCUB (UniProt Q9NWR8)
inactive: [1] -0.175 | volasertib -0.196 | [2] -0.143 | epoxomicin 0.041 | [3] -0.062 | [4] -0.025 | [5] 0.076 | rosiglitazone -0.049 | [6] -0.061 | [7] -0.129 | saracatinib 0.009 | sotrastaurin 0.014 | alvocidib -0.014 | Tubastatin A 0.022 | [8] -0.024 | defactinib -0.02 | rucaparib 0.005 | [9] -0.015 | encorafenib 0.058 | [10] -0.018

MAT2A (UniProt P31153)
inactive: [1] 0.004 | volasertib 0.068 | [2] -0.035 | epoxomicin 0.006 | [3] 0.023 | [4] 0.018 | [5] -0.047 | rosiglitazone -0.005 | [6] -0.018 | [7] -0.021 | saracatinib 0.068 | sotrastaurin 0.047 | alvocidib 0.046 | Tubastatin A -0.02 | [8] -0.039 | defactinib 0.013 | rucaparib -0.003 | [9] -0.026 | encorafenib -0.032 | [10] 0.048

METTL21A (UniProt Q8WXB1)
inactive: [1] 0.038 | volasertib -0.007 | [2] -0.049 | epoxomicin -0.014 | [3] -0.189 | [4] -0.024 | [5] 0.019 | rosiglitazone 0.008 | [6] -0.142 | [7] 0.056 | saracatinib 0.03 | sotrastaurin 0.03 | alvocidib -0.067 | Tubastatin A 0.03 | [8] -0.106 | defactinib -0.094 | rucaparib -0.057 | [9] 0.043 | encorafenib -0.02 | [10] -0.003

MBTPS1 (UniProt Q14703)
inactive: [1] -0.024 | volasertib -0.01 | [2] -0.019 | epoxomicin -0.021 | [3] -0.09 | [4] -0.034 | [5] -0.15 | rosiglitazone -0.025 | [6] 0.054 | [7] 0.053 | saracatinib 0.006 | sotrastaurin -0.046 | alvocidib -0.024 | Tubastatin A 0.036 | [8] 0.008 | defactinib 0.038 | rucaparib 0.167 | [9] -0.044 | encorafenib -0.041 | [10] -0.057

MCOLN1 (UniProt Q9GZU1)
inactive: [1] -0.001 | volasertib -0.147 | [2] -0.061 | epoxomicin 0.012 | [3] -0.004 | [4] 0.009 | rosiglitazone 0.05 | [6] -0.107 | [7] -0.057 | saracatinib -0.239 | sotrastaurin -0.04 | [8] 0.049 | rucaparib 0.119 | [9] -0.109 | encorafenib 0.033

MGAT1 (UniProt P26572)
inactive: [1] -0.001 | volasertib -0.014 | [2] 0.015 | epoxomicin 0.025 | [3] 0.024 | [4] -0.057 | [5] -0.073 | rosiglitazone 0.022 | [6] -0.121 | [7] 0.106 | saracatinib 0.033 | sotrastaurin 0.087 | alvocidib -0.006 | Tubastatin A 0.011 | [8] 0.083 | defactinib -0.018 | rucaparib 0.159 | [9] -0.023 | encorafenib -0.144 | [10] -0.012

MFF (UniProt Q9GZY8)
inactive: [1] -0.007 | volasertib 0 | [2] -0.046 | epoxomicin 0.037 | [4] 0.043 | [5] -0.031 | [6] 0.031 | saracatinib 0.003 | sotrastaurin -0.027 | Tubastatin A 0.012 | [8] -0.127 | defactinib -0.025 | rucaparib -0.059 | [9] -0.078 | encorafenib 0.015 | [10] 0.092
active: [7] -0.386

MGST2 (UniProt Q99735)
inactive: [1] 0.014 | volasertib 0.018 | [2] -0.082 | epoxomicin -0.13 | [3] 0.005 | [4] 0.202 | [5] 0.09 | rosiglitazone 0.042 | [6] 0.026 | [7] 0.073 | saracatinib -0.123 | sotrastaurin 0.095 | alvocidib -0.013 | Tubastatin A 0.039 | [8] 0.027 | defactinib 0.044 | rucaparib -0.047 | [9] 0.069 | encorafenib -0.083 | [10] 0.091

MECP2 isoform 2 (UniProt P51608)
inactive: [1] 0.129 | volasertib 0.365 | [2] 0.021 | epoxomicin -0.16 | [3] 0.156 | [4] 0.167 | [5] -0.123 | rosiglitazone -0.113 | [6] 0.316 | [7] 0.23 | saracatinib 0.026 | sotrastaurin 0.026 | alvocidib 0.286 | Tubastatin A 0.061 | [8] 0.123 | defactinib 0.319 | rucaparib 0.182 | [9] 0.088 | encorafenib 0.118 | [10] -0.001

METAP1 (UniProt P53582)
inactive: [1] 0.049 | volasertib 0.009 | [2] 0 | epoxomicin 0.002 | [3] 0.006 | [4] -0.015 | [5] -0.024 | rosiglitazone 0.027 | [6] -0.042 | [7] 0.048 | saracatinib -0.017 | sotrastaurin 0.047 | alvocidib 0.011 | Tubastatin A -0.037 | [8] -0.022 | defactinib 0.02 | rucaparib -0.009 | [9] 0.054 | encorafenib -0.021 | [10] -0.022

MED13 (UniProt Q9UHV7)
inactive: [1] -0.167 | volasertib -0.293 | [2] 0.112 | epoxomicin -0.011 | [4] 0.055 | [5] 0.076 | rosiglitazone 0.034 | [6] -0.029 | [7] 0.021 | saracatinib 0.13 | sotrastaurin -0.33 | alvocidib 0.057 | Tubastatin A 0.023 | defactinib 0.285 | rucaparib 0.099 | [9] 0.094 | encorafenib 0.197 | [10] 0.022
